According to PMC7051184, “C9orf72 arginine-rich dipeptide repeat proteins disrupt karyopherin-mediated nuclear import” (eLife, 2020):
No constants are given. Whether binding was seen depends on the method and setting. For some of these results: Binding seen in cells or lysates may run through a third protein. Some results given as binding are weak or reduced against the parent protein; the word gives no strength.

Protein sequences, listed by entry. Tags and fused reporters are not part of them. Residues count along the entry.
UniProt P02769, residues 25-607: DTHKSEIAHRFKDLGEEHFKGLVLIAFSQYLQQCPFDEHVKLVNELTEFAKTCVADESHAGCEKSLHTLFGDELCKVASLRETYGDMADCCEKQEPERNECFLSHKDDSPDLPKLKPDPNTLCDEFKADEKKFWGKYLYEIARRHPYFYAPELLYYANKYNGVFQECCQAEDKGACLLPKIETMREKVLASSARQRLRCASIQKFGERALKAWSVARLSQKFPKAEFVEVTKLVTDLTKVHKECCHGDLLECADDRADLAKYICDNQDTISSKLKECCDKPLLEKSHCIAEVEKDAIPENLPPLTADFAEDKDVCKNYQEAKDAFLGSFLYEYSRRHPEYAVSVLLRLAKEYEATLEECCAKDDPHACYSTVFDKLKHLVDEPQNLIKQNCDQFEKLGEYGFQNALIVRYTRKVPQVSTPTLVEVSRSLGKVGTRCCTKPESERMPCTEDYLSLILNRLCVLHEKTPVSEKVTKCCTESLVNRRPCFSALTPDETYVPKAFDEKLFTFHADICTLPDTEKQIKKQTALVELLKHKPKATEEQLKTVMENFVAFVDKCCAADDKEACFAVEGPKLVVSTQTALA
UniProt Q14974: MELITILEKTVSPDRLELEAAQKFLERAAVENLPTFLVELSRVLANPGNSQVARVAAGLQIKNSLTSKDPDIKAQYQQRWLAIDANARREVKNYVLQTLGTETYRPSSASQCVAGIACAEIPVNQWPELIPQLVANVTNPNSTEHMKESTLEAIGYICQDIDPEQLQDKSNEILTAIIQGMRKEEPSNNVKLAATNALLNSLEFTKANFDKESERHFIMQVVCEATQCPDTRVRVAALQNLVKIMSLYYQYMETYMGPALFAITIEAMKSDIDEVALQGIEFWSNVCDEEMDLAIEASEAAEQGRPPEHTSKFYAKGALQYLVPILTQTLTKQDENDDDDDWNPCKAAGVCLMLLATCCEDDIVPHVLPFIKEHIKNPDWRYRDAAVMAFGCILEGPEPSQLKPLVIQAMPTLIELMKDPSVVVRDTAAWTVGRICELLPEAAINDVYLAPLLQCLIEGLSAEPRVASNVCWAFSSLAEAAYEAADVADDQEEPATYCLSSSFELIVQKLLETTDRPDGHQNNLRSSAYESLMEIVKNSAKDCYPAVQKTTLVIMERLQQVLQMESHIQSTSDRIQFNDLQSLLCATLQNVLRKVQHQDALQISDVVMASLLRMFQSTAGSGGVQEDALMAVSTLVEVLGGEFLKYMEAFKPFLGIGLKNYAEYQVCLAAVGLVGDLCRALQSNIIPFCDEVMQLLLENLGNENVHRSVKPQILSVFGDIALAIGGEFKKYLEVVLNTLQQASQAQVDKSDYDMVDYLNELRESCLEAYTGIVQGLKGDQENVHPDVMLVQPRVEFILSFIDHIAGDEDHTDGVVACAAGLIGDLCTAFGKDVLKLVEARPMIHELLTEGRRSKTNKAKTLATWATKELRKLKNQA
GST-Nup100(1-610), GLFG domain of yeast Nup100 (Q02629, residues 1-610): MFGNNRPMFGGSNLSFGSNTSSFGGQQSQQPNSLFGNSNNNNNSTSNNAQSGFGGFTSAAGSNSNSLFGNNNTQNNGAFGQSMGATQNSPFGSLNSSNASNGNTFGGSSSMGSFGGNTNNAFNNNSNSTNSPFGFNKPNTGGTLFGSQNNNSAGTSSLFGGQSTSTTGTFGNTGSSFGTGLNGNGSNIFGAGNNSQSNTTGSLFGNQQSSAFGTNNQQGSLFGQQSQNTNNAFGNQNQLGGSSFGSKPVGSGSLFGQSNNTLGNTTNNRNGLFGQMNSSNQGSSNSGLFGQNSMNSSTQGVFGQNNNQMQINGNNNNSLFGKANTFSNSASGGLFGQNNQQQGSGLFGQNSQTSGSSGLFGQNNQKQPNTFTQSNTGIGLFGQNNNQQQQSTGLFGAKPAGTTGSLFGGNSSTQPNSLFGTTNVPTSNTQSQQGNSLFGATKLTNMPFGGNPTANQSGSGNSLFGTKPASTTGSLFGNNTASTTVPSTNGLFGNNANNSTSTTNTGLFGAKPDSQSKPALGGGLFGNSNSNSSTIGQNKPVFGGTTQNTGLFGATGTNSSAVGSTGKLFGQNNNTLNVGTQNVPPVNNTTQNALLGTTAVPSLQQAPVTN
GST-Nup100(1-307), GLFG domain of yeast Nup100 (Q02629, residues 1-307): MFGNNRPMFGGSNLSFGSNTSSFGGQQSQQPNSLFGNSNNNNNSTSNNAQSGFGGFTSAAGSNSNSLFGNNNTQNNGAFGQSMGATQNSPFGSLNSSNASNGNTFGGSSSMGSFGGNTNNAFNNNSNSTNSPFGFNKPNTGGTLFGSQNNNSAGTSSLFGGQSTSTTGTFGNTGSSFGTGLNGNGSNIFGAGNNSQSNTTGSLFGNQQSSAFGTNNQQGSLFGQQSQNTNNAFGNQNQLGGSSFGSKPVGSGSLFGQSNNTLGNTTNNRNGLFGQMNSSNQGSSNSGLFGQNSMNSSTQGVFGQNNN
UniProt Q02630, residues 348-458: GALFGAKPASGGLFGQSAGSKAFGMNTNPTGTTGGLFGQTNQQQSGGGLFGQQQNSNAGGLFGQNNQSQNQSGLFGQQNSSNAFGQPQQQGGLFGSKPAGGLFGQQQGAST

Tests used:
[1] = biological target: biotinylated BSA (bovine (from the name BSA)) (UniProt P02769); experiment: bead halo assay; as a3, in the presence of 1 mg/ml neuron lysate; both purified
[2] = biological target: biotinylated WT importin β-Avitag (human) (UniProt Q14974); experiment: as above
[3] = biological target: GST-Nsp1(497-609), FxFG domain of yeast Nsp1 (S. cerevisiae) (UniProt P14907); experiment: bead halo assay; GST-fused yeast FG- and GLFG-domains on glutathione polystyrene beads; AF488-DPRs in binding buffer; rim vs. background ratio, Nup116 F→A beads define the non-specific level; both purified
[4] = biological target: GST-Nup100(1-307), GLFG domain of yeast Nup100 (S. cerevisiae) (UniProt Q02629); experiment: as above
[5] = biological target: GST-Nup100(1-610), GLFG domain of yeast Nup100 (S. cerevisiae) (UniProt Q02629); experiment: as above
[6] = biological target: GST-Nup116(348-458), GLFG domain of yeast Nup116 (S. cerevisiae) (UniProt Q02630); experiment: as above
[7] = biological target: biotinylated BSA (bovine (from the name BSA)) (UniProt P02769); experiment: bead halo assay; biotinylated importin β or biotinylated BSA on neutravidin polystyrene beads; fluorescent prey (200 nM AF488-DPR, Rango) in binding buffer with assay buffer (EDTA, BSA, NaCl, Tween); room temperature, at least 30 min; confocal rim vs. background ratio; both purified
[8] = biological target: T1, GR10, synthetic poly-glycine-arginine 10-mer dipeptide repeat protein with C-terminal lysine and cysteine (human); experiment: co-sedimentation; 100 µM DPR 10-mers added to 2.5 mg/ml HEK lysate in transport buffer with energy, 1 hr; aggregates pelleted, rinsed; equal volumes of supernatant and pellet analysed by immunoblot; only the target purified
T1 sequence (peptide): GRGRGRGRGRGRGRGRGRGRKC

[9] = biological target: T2, PR10, synthetic poly-proline-arginine 10-mer dipeptide repeat protein with C-terminal lysine and cysteine (human); experiment: as above
T2 sequence (peptide): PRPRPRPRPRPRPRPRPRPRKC

[10] = biological target: T1, GR10, synthetic poly-glycine-arginine 10-mer dipeptide repeat protein with C-terminal lysine and cysteine (human); experiment: co-sedimentation; 50 µM GR10 or 25 µM PR10 added to 5 mg/ml HEK whole cell lysate (TRB with energy mix), 60 min at 37°C; aggregates pelleted at 16,000 g for 10 min, washed 2x; pellet analysed by LC/MS/MS; only the target purified
[11] = biological target: T2, PR10, synthetic poly-proline-arginine 10-mer dipeptide repeat protein with C-terminal lysine and cysteine (human); experiment: as above

For GRGRGRGRGRGRGRGRGRGRKC (Alexa Fluor 488 C5-maleimide on the C-terminal cysteine) [AF488-labeled GR10], the binding [1] was “no binding”, the binding [2] was “no binding (condition: with 1 mg/ml neuronal lysate)” and the binding [3] was “no binding”. For the same binder, the binding [4] was “binds weakly”, the binding [5] was “binds weakly” and the binding [6] was “no binding”. The binding [7] was “no binding (tested: 200 nM)”.

PRPRPRPRPRPRPRPRPRPRKC (Alexa Fluor 488 C5-maleimide on the C-terminal cysteine) [AF488-labeled PR10] was tested, and the binding [4] was “binds weakly”, the binding [5] was “binds weakly” and the binding [6] was “no binding”. The binding [7] was “no binding (tested: 200 nM)”.

B1: Nup54 of HEK cell lysate (protein, UniProt Q7Z3B4 1-507)
chain: MAFNFGAPSGTSGTAAATAAPAGGFGGFGTTSTTAGSAFSFSAPTNTGTTGLFGGTQNKGFGFGTGFGTTTGTSTGLGTGLGTGLGFGGFNTQQQQQTTLGGLFSQPTQAPTQSNQLINTASALSAPTLLGDERDAILAKWNQLQAFWGTGKGYFNNNIPPVEFTQENPFCRFKAVGYSCMPSNKDEDGLVVLVFNKKETEIRSQQQQLVESLHKVLGGNQTLTVNVEGTKTLPDDQTEVVIYVVERSPNGTSRRVPATTLYAHFEQANIKTQLQQLGVTLSMTRTELSPAQIKQLLQNPPAGVDPIIWEQAKVDNPDSEKLIPVPMVGFKELLRRLKVQDQMTKQHQTRLDIISEDISELQKNQTTSVAKIAQYKRKLMDLSHRTLQVLIKQEIQRKSGYAIQADEEQLRVQLDTIQGELNAPTQFKGRLNELMSQIRMQNHFGAVRSEERYYIDADLLREIKQHLKQQQEGLSHLISIIKDDLEDIKLVEHGLNETIHIRGGVFS
B1 was tested, and the binding [8] was “binds” and the binding [9] was “binds”.

B2: Nup133 of HEK cell lysate (protein, UniProt Q8WUM0 1-1156)
chain: MFPAAPSPRTPGTGSRRGPLAGLGPGSTPRTASRKGLPLGSAVSSPVLFSPVGRRSSLSSRGTPTRMFPHHSITESVNYDVKTFGSSLPVKVMEALTLAEVDDQLTINIDEGGWACLVCKEKLIIWKIALSPITKLSVCKELQLPPSDFHWSADLVALSYSSPSGEAHSTQAVAVMVATREGSIRYWPSLAGEDTYTEAFVDSGGDKTYSFLTAVQGGSFILSSSGSQLIRLIPESSGKIHQHILPQGQGMLSGIGRKVSSLFGILSPSSDLTLSSVLWDRERSSFYSLTSSNISKWELDDSSEKHAYSWDINRALKENITDAIWGSESNYEAIKEGVNIRYLDLKQNCDGLVILAAAWHSADNPCLIYYSLITIEDNGCQMSDAVTVEVTQYNPPFQSEDLILCQLTVPNFSNQTAYLYNESAVYVCSTGTGKFSLPQEKIVFNAQGDSVLGAGACGGVPIIFSRNSGLVSITSRENVSILAEDLEGSLASSVAGPNSESMIFETTTKNETIAQEDKIKLLKAAFLQYCRKDLGHAQMVVDELFSSHSDLDSDSELDRAVTQISVDLMDDYPASDPRWAESVPEEAPGFSNTSLIILHQLEDKMKAHSFLMDFIHQVGLFGRLGSFPVRGTPMATRLLLCEHAEKLSAAIVLKNHHSRLSDLVNTAILIALNKREYEIPSNLTPADVFFREVSQVDTICECLLEHEEQVLRDAPMDSIEWAEVVINVNNILKDMLQAASHYRQNRNSLYRREESLEKEPEYVPWTATSGPGGIRTVIIRQHEIVLKVAYPQADSNLRNIVTEQLVALIDCFLDGYVSQLKSVDKSSNRERYDNLEMEYLQKRSDLLSPLLSLGQYLWAASLAEKYCDFDILVQMCEQTDNQSRLQRYMTQFADQNFSDFLFRWYLEKGKRGKLLSQPISQHGQLANFLQAHEHLSWLHEINSQELEKAHATLLGLANMETRYFAKKKTLLGLSKLAALASDFSEDMLQEKIEEMAEQERFLLHQETLPEQLLAEKQLNLSAMPVLTAPQLIGLYICEENRRANEYDFKKALDLLEYIDEEEDININDLKLEILCKALQRDNWSSSDGKDDPIEVSKDSIFVKILQKLLKDGIQLSEYLPEVKDLLQADQLGSLKSNPYFEFVLKANYEYYVQGQI
In the case of B2, the binding [8] is reported as “binds” and the binding [9] is reported as “binds”.

B3: Matrin-3 of HEK cell lysate (protein, UniProt P43243 1-847)
chain: MSKSFQQSSLSRDSQGHGRDLSAAGIGLLAAATQSLSMPASLGRMNQGTARLASLMNLGMSSSLNQQGAHSALSSASTSSHNLQSIFNIGSRGPLPLSSQHRGDADQASNILASFGLSARDLDELSRYPEDKITPENLPQILLQLKRRRTEEGPTLSYGRDGRSATREPPYRVPRDDWEEKRHFRRDSFDDRGPSLNPVLDYDHGSRSQESGYYDRMDYEDDRLRDGERCRDDSFFGETSHNYHKFDSEYERMGRGPGPLQERSLFEKKRGAPPSSNIEDFHGLLPKGYPHLCSICDLPVHSNKEWSQHINGASHSRRCQLLLEIYPEWNPDNDTGHTMGDPFMLQQSTNPAPGILGPPPPSFHLGGPAVGPRGNLGAGNGNLQGPRHMQKGRVETSRVVHIMDFQRGKNLRYQLLQLVEPFGVISNHLILNKINEAFIEMATTEDAQAAVDYYTTTPALVFGKPVRVHLSQKYKRIKKPEGKPDQKFDQKQELGRVIHLSNLPHSGYSDSAVLKLAEPYGKIKNYILMRMKSQAFIEMETREDAMAMVDHCLKKALWFQGRCVKVDLSEKYKKLVLRIPNRGIDLLKKDKSRKRSYSPDGKESPSDKKSKTDGSQKTESSTEGKEQEEKSGEDGEKDTKDDQTEQEPNMLLESEDELLVDEEEAAALLESGSSVGDETDLANLGDVASDGKKEPSDKAVKKDGSASAAAKKKLKKVDKIEELDQENEAALENGIKNEENTEPGAESSENADDPNKDTSENADGQSDENKDDYTIPDEYRIGPYQPNVPVGIDYVIPKTGFYCKLCSLFYTNEEVAKNTHCSSLPHYQKLKKFLNKLAEERRQKKET
In the case of B3, the binding [8] is reported as “binds”, the binding [9] is reported as “binds” and the binding [10] is reported as “binds”. The binding [11] was “binds”.
